{"source": "PubChem BioAssay AID504834", "about": "(National Center for Advancing Translational Sciences (NCATS), 2011)", "note": "In all, about 320,000 compounds went through this assay and about 22,000 (6.9%) were called active. The inconclusive results got no clear call from the source; some entries with a clear call stand among them for comparison. Calls follow the shape of the dose curve; as a rule, active = well fitted inhibition curve with a large enough effect; inconclusive = small, poorly fitted or top-dose-only effect, or another doubt; inactive = no such curve, though single readings can be large or run the other way. Potencies of inconclusive entries are doubtful fits and often do not repeat. % is scaled to controls: 0 for no effect and ±100 for the full control effect; potency is read from the fitted curve at half-maximal effect."}
{"assay": "Primary qHTS for delayed death inhibitors of the malarial parasite plastid, 96 hour incubation", "conditions": "P. falciparum luciferase reporter growth; series mostly up to 28.7 µM; activity change, negative = inhibition: at the top concentration", "method_in_brief": "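Erythrocytes infected with luciferase-expressing P. falciparum were dispensed at 2% hematocrit and 0.05% parasitemia (final), then incubated with compounds 96 hours at 37 C in 5% CO2. Luminescence after detection reagent addition reported growth.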"}
{"smiles": "COc1cc(/C=N/N=C2/NC(=O)C(c3ccccc3)S2)ccc1O", "note": "(stereo not drawn)", "activity change, negative = inhibition": "inactive: -12.1%"}
{"smiles": "Cc1ccc(NC(=S)NCc2ccc(F)cc2)c(C)c1", "Potency": "inconclusive: 18.5 µM [inhibitor, single point]"}
{"smiles": "Cc1ccn2cc(CNS(=O)(=O)c3ccc4ccccc4c3)nc2c1", "Potency": "inconclusive: 18.5 µM [inhibitor, partial curve, poor fit]"}
{"smiles": "CC(=O)Cc1nsc(Nc2ccc3c(c2)OCCO3)n1", "Potency": "inconclusive: 8.28 µM [inhibitor, single point]"}
{"smiles": "Cc1csc(NC(=O)CCC(=O)c2cccs2)n1", "Potency": "inconclusive: 13.1 µM [inhibitor, single point]"}
{"smiles": "Cc1ccc(C(=O)N2CCCC(C(=O)c3ccc(Cl)cc3C)C2)cn1", "note": "(stereo not drawn)", "Potency": "inconclusive: 18.5 µM [inhibitor, single point]"}
{"smiles": "COc1nc(OCCNC(=O)Nc2ccccc2)nc(N(C)C)n1", "Potency": "inconclusive: 18.5 µM [inhibitor, single point]"}
{"smiles": "O=C(/C=C/Nc1ccc(Cc2ccc(N/C=C/C(=O)C(F)(F)F)cc2)cc1)C(F)(F)F", "activity change, negative = inhibition": "inactive: -28.5%"}
{"smiles": "O=C(Nc1nc(-c2ccncc2)cs1)c1ccc(S(=O)(=O)N2CCOCC2)cc1", "Potency": "inconclusive: 0.294 µM [inhibitor, full curve, poor fit]"}
{"smiles": "CCC(c1nnnn1C(C)(C)C)N(Cc1ccco1)Cc1cc2cccc(C)c2[nH]c1=O", "note": "(stereo not drawn)", "Potency": "inconclusive: 4.15 µM [inhibitor, full curve, poor fit]"}
{"smiles": "O=S(=O)(c1ccc(SCCO)nc1)N1CCOCC1", "activity change, negative = inhibition": "inactive: -37.5%"}
{"smiles": "Cc1ccc(S(=O)(=O)N2CCN(C(=O)CSc3ncc(C(F)(F)F)cc3Cl)CC2)cc1", "Potency": "inconclusive: 2.62 µM [inhibitor, partial curve, poor fit]"}
{"smiles": "CN(CC(=O)Nc1sc2c(c1C#N)CCCCC2)Cc1nc2ccccc2c(=O)[nH]1", "Potency": "inconclusive: 18.5 µM [inhibitor, single point]"}
{"smiles": "COc1cccc(C(=O)Nc2nnc(SCC(=O)NC3CC3)s2)c1", "activity change, negative = inhibition": "inactive: -6.13%"}
{"smiles": "Cc1cc(C)c(NC(=O)C2CCCN2CCC(C)C)c(C)c1", "note": "(stereo not drawn)", "Potency": "inconclusive: 14.7 µM [inhibitor, single point]"}
{"smiles": "Cc1ccc(C2=N/C(=C\\N3CCCCC3)C(=O)O2)cc1", "Potency": "inconclusive: 0.522 µM [inhibitor, full curve, poor fit]"}
{"smiles": "O=C(CCN1CCOCC1)c1ccc(Br)cc1", "activity change, negative = inhibition": "inactive: 42.2%"}
{"smiles": "O=C(Cc1ccc(Cl)c(Cl)c1)Nc1ccc(SC(F)F)cc1", "Potency": "inconclusive: 13.1 µM [inhibitor, single point]"}
{"smiles": "CC(=O)Nc1nc(C2CC2)cc(-c2ccccc2)c1C#N", "Potency": "inconclusive: 16.5 µM [inhibitor, single point]"}
{"smiles": "O=C(N/N=C/c1ccc(O)cc1O)NC12CC3CC(CC(C3)C1)C2", "activity change, negative = inhibition": "inactive: -28.4%"}
{"smiles": "COc1ccc(CCNC(=O)CCCOc2cc(=O)n(C)c3ccccc23)cc1OC", "Potency": "inconclusive: 18.5 µM [inhibitor, single point]"}
{"smiles": "Cc1ccc(OC(=O)c2cc(=O)c3ccccc3o2)cc1", "Potency": "inconclusive: 5.22 µM [inhibitor, partial curve, poor fit]"}
{"smiles": "Cc1cc(O)c(-c2cc(C(=O)NCCc3ccc(S(N)(=O)=O)cc3)[nH]n2)cc1C", "Potency": "inconclusive: 11.7 µM [inhibitor, partial curve, poor fit]"}
{"smiles": "Cc1c(Cl)ccc2c(C(=O)O)cc(-c3ccccc3)nc12", "Potency": "inconclusive: 0.828 µM [inhibitor, full curve, poor fit]"}
{"smiles": "O=C(Nc1cccnc1)c1cc(-c2cccnc2)nc2ccc(Br)cc12", "Potency": "active: 1.17 µM"}
{"smiles": "CN(CC(=O)Nc1ccc(Cl)c(C(F)(F)F)c1)C(=O)c1cc(=O)c2ccccc2o1", "Potency": "inconclusive: 18.5 µM [inhibitor, single point]"}
{"smiles": "CCCCCN(C(=O)CCC(=O)OCC(=O)NC1CCC(C)CC1)c1c(N)n(CCCC)c(=O)[nH]c1=O", "note": "(stereo not drawn)", "Potency": "active: 14.7 µM"}
{"smiles": "CN(C(=O)CSc1nnc(-c2ccccc2F)o1)c1ccccc1", "Potency": "inconclusive: 11.7 µM [inhibitor, partial curve, poor fit]"}
{"smiles": "CCC(=O)Oc1ccc2c(=O)c(-c3ccc4ccccc4n3)c(CC)oc2c1C", "Potency": "inconclusive: 2.94 µM [inhibitor, single point]"}
{"smiles": "CCCCCc1c(C)[nH]c2nc3ccccc3n2c1=O", "Potency": "inconclusive: 4.65 µM [inhibitor, partial curve, poor fit]"}
{"smiles": "Cc1cccc(NC(=O)CSCC(=O)Nc2cc(S(=O)(=O)N3CCOCC3)ccc2N2CCCC2)c1", "Potency": "inconclusive: 10.4 µM [inhibitor, single point]"}
{"smiles": "CC(=O)NC12CC3CC(C1)CC(C(=O)N1CCN(C(=O)c4ccco4)CC1)(C3)C2", "Potency": "inconclusive: 4.15 µM [inhibitor, single point]"}
{"smiles": "COc1cccc(CN(C)C(=O)C23CC4CC(CC(NC(C)=O)(C4)C2)C3)c1OC", "Potency": "inconclusive: 13.1 µM [inhibitor, single point]"}
{"smiles": "COC(=O)C1=C(C)NC(C)=C(C(=O)OC)C1c1ccc(OC(=O)c2ccco2)cc1", "Potency": "inconclusive: 10.4 µM [inhibitor, single point]"}
{"smiles": "Cc1ccc(S(=O)(=O)NC(C(=O)N2CCOCCOCCOCC2)c2ccccc2)cc1", "note": "(stereo not drawn)", "activity change, negative = inhibition": "inactive: -12.8%"}
{"smiles": "CN(C)c1ccc(C(=O)/C=C/c2ccccc2)cc1", "activity change, negative = inhibition": "inactive: 354%"}
{"smiles": "COc1cccc(-n2c(=O)n(Cc3ccccc3)c(=O)c3[nH]cnc32)c1C", "activity change, negative = inhibition": "inactive: -2.39%"}
{"smiles": "Cc1nc2ccc(NC(=O)c3cncc(Br)c3)cc2s1", "Potency": "inconclusive: 18.5 µM [inhibitor, single point]"}
{"smiles": "Cc1ccc(S(=O)(=O)NC(CC(=O)O)c2ccc(F)cc2)cc1", "note": "(stereo not drawn)", "Potency": "inconclusive: 18.5 µM [inhibitor, single point]"}
{"smiles": "CN(C)CC(O)CN1C(=O)NC(C)(C)C1=O", "note": "(stereo not drawn)", "Potency": "active: 2.08 µM"}
{"smiles": "CCOc1cc2[nH]c(=O)n(CCCCC(=O)N3CCCCCC3)c(=O)c2cc1OCC", "activity change, negative = inhibition": "inactive: 9.63%"}
{"smiles": "CCc1ccc(C(=O)Nc2ccc(OC)c(S(=O)(=O)N3CCCCC3)c2)cc1", "Potency": "inconclusive: 18.5 µM [inhibitor, single point]"}
{"smiles": "O=C(NCc1ccccc1)C(=O)NCC1OCCN1S(=O)(=O)c1ccc(Br)cc1", "note": "(stereo not drawn)", "Potency": "inconclusive: 0.415 µM [inhibitor, partial curve, poor fit]"}
